For at least one compound, name, drawing or mass did not settle the structure.
Test system: ScFv FITC on CHO cells
Experiment: Competition binding on CHO ScFv FITC-expressing cells
Details: in the presence of 1 nM 111In-DTPA-FITC as tracer
Method: Wild-type or ScFv FITC-expressing cells were plated at 3×10^4 cells/well in 96-well plates one day before binding experiments. […] Cells were gently agitated for 45 minutes at rt and then washed three times 250 ul/well PBS at 4 degrees C. […] For competition experiments, competitor compounds were diluted in 50 ul/well of PBS, 0.1% BSA and added first to washed wells containing cells as above. […] Incubations, washes and counting were performed as above.

Compound O=C1OC2(c3ccc(O)cc3Oc3cc(O)ccc32)c2ccccc21 [fluorescein] has an IC50 of 27.1 nM.

— patent publication US20030033616A1, “Imaging marker transgenes” (priority 2001, published 2003)
